The subject of the assay is bloodstream forms of Trypanosoma brucei brucei. In words: resazurin-based antitrypanosomal inhibition assay. It is filed as cell-based. How it is done: Parasites were axenically cultivated in sterile vented flasks containing complete Hirumi’s modified Iscove’s medium 9 (HMI-9) [500 mL IMDM (Iscove’s modified Dulbecco’s medium) (Gibco, Waltham, MA, USA) supplemented with 10% (v/v) heat-inactivated fetal bovine serum (HIFBS) (Sigma Aldrich), 10% (v/v) serum plus (Sigma Aldrich), HMI-9 supplement (1 mM hypoxanthine, 0.16 mM thymidine, 50 µM bathocuproine disulfonic acid, 1.5 mM cysteine, 1.25 Mm pyruvic acid, 0.2 mM 2-mercaptoethanol (Sigma Aldrich)), and 1% (v/v) penicillin–streptomycin (Sigma Aldrich) and incubated at 37 °C in a 5% CO2 atmosphere.
The in vitro inhibitory potency of the 400 MMVPB compounds against bloodstream forms of Trypanosoma brucei brucei was evaluated using the resazurin-based inhibition assay as previously described. Briefly, parasites at their mid-logarithmic growth phase were counted, and the cell density was adjusted with fresh complete HMI-9 medium to 2 × 10^5 trypanosomes per mL. Then, 90 µL of parasite suspension was then distributed into the wells of 96-well flat-bottomed plates containing 10 µL of compounds for a final test concentration of 10 µM. […] Each assay plate was set up in duplicate and repeated two times. The percent parasite inhibition was determined for each compound based on fluorescence readouts relative to the mean fluorescence of negative control wells. […]
(In general: The colour change of resazurin is a common sign of viable cells or microbes.)

Read-outs that look alike come from different tables or passages of the source.

As to `CNCCC(Oc1ccc(C(F)(F)F)cc1)c1ccccc1` (centres unmarked) [MMV001561, fluoxetine, reference compound], the IC50 (Table 2, MMVPB compounds with known anti-kinetoplastid activity, read-out: IC50 ± SD T. b. b.) is 1900 ± 50 nM and the IC50 (Table 2, negative log of IC50 in molar, read-out: pIC50 T. b. b. (converted)) is 1910 nM.

(Values after article PMC9571290, “Preliminary Structure–Activity Relationship Study of the MMV Pathogen Box Compound MMV675968 (2,4-Diaminoquinazoline) Unveils Novel Inhibitors of Trypanosoma brucei brucei” (Molecules, 2022).)
